Data published in the supplement of paper PMC10338343.
± gives the standard deviation. The list shows a part of the results, in another mix than the full data. Many of these values have a large error. Some of the results follow.

Tests used:
[1] = test system: MILI (PIWIL2) piRISC loaded with L1MC piRNA (26 nt); assay: pre-steady-state target cleavage rate (min^-1); higher = faster piRNA-guided slicing of the target; conditions: guide: L1MC piRNA 5'p-UAACUAAAUACUAUGCAAGCUGUAGG
How it was run: (§1)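 Cleave-'n-Seq used a transcribed, DNA-blocked target RNA library at 0.1 nM and active affinity-purified piRISC with one synthetic guide at 1 nM, with or without 500 nM GTSF1 partner protein, in HEPES–potassium acetate buffer at 33 °C for 0–8 or 0–960 min. Uncleaved targets were sequenced and normalised to depth and to weakly complementary targets, and three trials were pooled with k3 capped at 0.0001 min^-1. The pre-steady-state cleavage rate was estimated by a burst-and-steady-state fit.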

[2] = test system: EfPiwi piRISC loaded with L1MC piRNA (26 nt); assay: pre-steady-state target cleavage rate (min^-1); guide: L1MC piRNA 5'p-UAACUAAAUACUAUGCAAGCUGUAGG; MIWI and MILI are mouse PIWI proteins and EfPiwi is from a freshwater sponge; tags in brackets are library labels; higher = faster piRNA-guided slicing of the target
How it was run: as §1

[3] = auxiliary factor: none (no GTSF1)
[4] = auxiliary factor: 500 nM Ephydatia muelleri Gtsf1
[5] = auxiliary factor: none (no Gtsf1)
[6] = auxiliary factor: 500 nM mouse GTSF1

Sequence | pre-steady-state target cleavage rate [1, 3] | pre-steady-state target cleavage rate [2, 4] | pre-steady-state target cleavage rate [2, 5] | pre-steady-state target cleavage rate [1, 6]
UCCUGGAUGUCGAUCCAAAGUAUUUAGUUA | 0.000158 ± 0.017 | 0.000709 ± 0.0089 | – | –
UCCUGGAUCACCUUGCAUAGAAUUUAGUUA | 0.00229 ± 0.0031 | 0.00179 ± 0.005 | – | –
UCCUGGAUGUCGAACGUAUCUAUUCAGUUA | 0.0001 ± 0.027 | – | < 0.0001 | –
UCCUCCUACAGCUUGCAUAGUAUUUACAUA | 0.00261 ± 0.0028 | 0.00441 ± 0.0028 | – | –
UCCUGGAUGAGCUUGCAUAGUAUUUUCAAA | 0.00109 ± 0.0074 | 0.00209 ± 0.0024 | – | –
UCCUGGAUGUCGAACGUAUGUAAUUAGUUA | 0.000211 ± 0.019 | – | 0.000116 ± 0.054 | –
UCCUGGAACAGCUUGCAUACUAUAUAGUUA | 0.00205 ± 0.0037 | 0.00193 ± 0.0026 | – | –
UCCUCCUACAGCUUGCUUAGUAUUAAGUUA | 0.00226 ± 0.0029 | 0.00459 ± 0.0031 | – | –
UCCUGGAACAGCUUCGUUAGUAUUUUCAAA | 0.000401 ± 0.013 | 0.000247 ± 0.015 | – | –
UCCUGGUACAGCAUGCAUAGUAUUUAGAAA | 0.00258 ± 0.0032 | – | 0.000325 ± 0.026 | –
UCCUGGAACAGCUUGCAUAGAAUUUAGUAA | 0.000863 ± 0.0083 | 0.00292 ± 0.002 | – | –
UCCUGGUACAGCUUGCAAUGUAUUUAGUAA | 0.00268 ± 0.0034 | 0.000953 ± 0.0057 | – | –
UCCUCCUACAGCUGUGCAUAGUAUUUAGUUA | – | 0.0425 ± 0.015 | – | 0.321 ± 0.017
UCCUGGUACAGCUUGCAUAGUAUAUAGUAA | 0.00295 ± 0.0036 | – | 0.000341 ± 0.024 | –
UCCUGCUACCGCUUGCAUAGUAUUUAGUUA | – | 0.0156 ± 0.005 | – | 0.368 ± 0.035
UCCUGGAUGUGCUUGCAUAGUAUUUGAGUUA | 0.00357 ± 0.0036 | 0.0118 ± 0.0069 | – | –
UCCUGCUACAGCUUGCAAAGUUUUUAGUUA | 0.0024 ± 0.0027 | 0.00207 ± 0.002 | – | –
UCCUGGAACAGCUUGCAUACUAUUUAGAUA | 0.000806 ± 0.0075 | 0.00312 ± 0.0022 | – | –
UCCUGGAUCACCUUGCAUAGUAUUUACUUA | 0.00232 ± 0.004 | 0.000992 ± 0.0061 | – | –
UCCUGGAUGAGCUUGCAUAGUAUUUUGUAA | 0.000804 ± 0.0089 | 0.00129 ± 0.0048 | – | –

In another format: entries from further up
UCCUGGAUGUCGAACGUAUCUAUUCAGUUA
  pre-steady-state target cleavage rate [1, 3]: 0.0001 ± 0.027; pre-steady-state target cleavage rate [2, 5]: < 0.0001
UCCUCCUACAGCUUGCAUAGUAUUUACAUA
  pre-steady-state target cleavage rate [1, 3]: 0.00261 ± 0.0028; pre-steady-state target cleavage rate [2, 4]: 0.00441 ± 0.0028
UCCUGGAUGAGCUUGCAUAGUAUUUUCAAA
  pre-steady-state target cleavage rate [1, 3]: 0.00109 ± 0.0074; pre-steady-state target cleavage rate [2, 4]: 0.00209 ± 0.0024

(listing goes on)

Sequence | pre-steady-state target cleavage rate [1, 3] | pre-steady-state target cleavage rate [2, 4] | pre-steady-state target cleavage rate [2, 5] | pre-steady-state target cleavage rate [1, 6]
UCCUGGAUGUCGAACCACUAGUAUUUAGUUA | 0.000394 ± 0.011 | 0.00022 ± 0.028 | – | –
UCCUGGAUGUCGAAGCAUUGUAUUUAGAUA | 0.000139 ± 0.027 | 0.000823 ± 0.008 | – | –
UCCUGGAUGUCGAACCAUAGUAUUAAGUUA | 0.000153 ± 0.022 | < 0.0001 | – | –
UCCUGGAUGUCGUUGCAUACUAUAUAGUUA | 0.000571 ± 0.011 | – | 0.000123 ± 0.08 | –
UCCUGGUACAGCUUGCAUAGUAUUUAGCUUA | 0.00177 ± 0.0057 | – | 0.000922 ± 0.011 | –
UCCUGGAUGUCCUUGCAUAGUAUUUCGUUA | 0.00253 ± 0.0033 | 0.000876 ± 0.0033 | – | –
UCCUGGAUGAGCUUGCAUAGUAUUUAGCUA | 0.0005 ± 0.014 | 0.00145 ± 0.0022 | – | –
UCCUCCUACAGCUUGCAUAGUAUUAUCUUA | 0.0019 ± 0.0044 | 0.00351 ± 0.0027 | – | –
UCCUGGAACAGCUUGCAUAGUUUAUAGUUA | 0.00212 ± 0.0036 | 0.00164 ± 0.0034 | – | –
UCCUGGAUGUCGAACGUUAGUAUUUGGUUA | 0.000119 ± 0.034 | – | 0.00018 ± 0.038 | –
UCCUGGAUGUCGAUGCAUUGUAUUAAGUUA | 0.000314 ± 0.016 | 0.000122 ± 0.027 | – | –
UCCUGGAUGUGCUUGCAUAGUUAUUAGAAA | 0.000958 ± 0.0051 | 0.000309 ± 0.013 | – | –
UCCUGGAUCAGCUUGGAUAGUAUUUUGUUA | 0.00182 ± 0.0041 | 0.00346 ± 0.0027 | – | –
UCCUGGAACAGUUUGCAUAGUAUUUAGUUA | – | – | 0.00323 ± 0.0046 | 0.285 ± 0.014
UCCUGCUACAGCUUGCAUAGUUUUUAGAUA | 0.000955 ± 0.0065 | – | 0.000472 ± 0.015 | –
UCCUCGUACAGCUUGCAUAGUAUUUAGAUA | 0.00213 ± 0.003 | 0.00437 ± 0.0019 | – | –
UCCUGGUAGAGCUUGCAUACUAUUUAGUUA | 0.00225 ± 0.0034 | 0.00236 ± 0.0036 | – | –
UCCUGGAUCAGCUUCGCAUAGUAUUUAGUUA | – | 0.0389 ± 0.009 | – | 0.309 ± 0.02
UCCUCCUAGAGCUUGCAUAGUAUUUUGUUA | 0.00246 ± 0.0026 | 0.006 ± 0.0024 | – | –
UCCUGGUACAGCUUGGAUUGUAUUUAGUUA | 0.00312 ± 0.0033 | 0.000856 ± 0.0078 | – | –

Sequence | pre-steady-state target cleavage rate [1, 3] | pre-steady-state target cleavage rate [2, 4] | pre-steady-state target cleavage rate [2, 5] | pre-steady-state target cleavage rate [1, 6]
UCCUCCUACAGCUUGCAUAGUAUUUAGUUU [g2:g26:cont:t1U] | – | 0.265 ± 0.062 | – | 0.35 ± 0.02
UCCUGGAUCAGCUUGCAUAGUAUUUAGUCUA | 0.00167 ± 0.0047 | 0.00289 ± 0.0027 | – | –
UCCUGGAUGUCCUUGCAUAGUAUUUAAUUA | 0.00239 ± 0.0031 | – | 0.000488 ± 0.015 | –
UCCUGGAUGUCGAACCAUAGUAUUUAGUCA | – | < 0.0001 | – | 0.000728 ± 0.0086
UCCUCCUACAGCUUGCAUACUAUUUACAAA | 0.00109 ± 0.0055 | – | 0.000467 ± 0.015 | –
UCCUGGAUGAGCUUGCAUAGUUUUUACUUA | 0.000992 ± 0.0064 | 0.000551 ± 0.013 | – | –
UCCUGGAUCAGCUUGCAUACUAUAUAGUUA | 0.00163 ± 0.0035 | 0.00161 ± 0.0033 | – | –
UCCUGCUACAGCUAGCAUAGUAAUUAGUUA | – | 0.00598 ± 0.0018 | – | 0.284 ± 0.026
UCCUGGAUGUCGAUGCAUAGUAAAAAGUUA | 0.000708 ± 0.0084 | 0.000107 ± 0.047 | – | –
UCCUGGAUGUCGAACGAUAGAUUUUAGUUA | 0.000236 ± 0.017 | – | 0.000477 ± 0.015 | –
UCCUGCUUGUGCUUGCAUAGUAUUUAGUAA | 0.00149 ± 0.0043 | 0.00475 ± 0.0026 | – | –
UCCUCCUUGUGCUUGCAUAGUAUUUAGAAA | 0.000974 ± 0.0041 | 0.00387 ± 0.0022 | – | –
UCCUGGAUGUCGAACGUUUGUAUAUAGUUA | 0.000255 ± 0.015 | – | 0.000206 ± 0.037 | –
UCCUGGAACACCUUGCAUAGUAUUUUGUUA | 0.00167 ± 0.0055 | 0.00343 ± 0.0029 | – | –
UCCUGGUACAGCUUGCAUAGAAUUUAGUAA | 0.00134 ± 0.0061 | 0.00202 ± 0.0021 | – | –
UCCUGGAUCACCUUGCAUAGUAUAUAGUUA | 0.00245 ± 0.0045 | 0.00229 ± 0.007 | – | –
UCCUGCUACAGGUAGCAUAGUAUUUAGUUA | – | 0.0207 ± 0.0042 | – | 0.367 ± 0.031
UCCUCCUACAGCUUGCAUAGUUUUUAGUAA | 0.00267 ± 0.0027 | 0.005 ± 0.0022 | – | –
UCCUGCUACAGCUUGCAUAGUAAUUAGAUA | 0.00103 ± 0.0052 | 0.00345 ± 0.0018 | – | –
UCCUGGAUGAGCUACCAUAGUAUUUACAAA | 0.000429 ± 0.012 | 0.000168 ± 0.029 | – | –
